Data from paper PMC8353826, “Celastrol exerts a neuroprotective effect by directly binding to HMGB1 protein in cerebral ischemia–reperfusion” (Journal of Neuroinflammation, 2021).
Results are given in words; binding and its absence hold for the method and conditions named. In cells and extracts the contact can be indirect. Some entries that bind do so weakly or less than the wild type.

Sequences of proteins named here, by UniProt entry; tags and fusion partners are left off. Residues count along the entry.
UniProt P09429, residues 90-175: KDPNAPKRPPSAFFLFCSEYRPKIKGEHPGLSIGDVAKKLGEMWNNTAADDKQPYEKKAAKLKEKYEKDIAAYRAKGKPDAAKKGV
UniProt Q63495, residues 23-402: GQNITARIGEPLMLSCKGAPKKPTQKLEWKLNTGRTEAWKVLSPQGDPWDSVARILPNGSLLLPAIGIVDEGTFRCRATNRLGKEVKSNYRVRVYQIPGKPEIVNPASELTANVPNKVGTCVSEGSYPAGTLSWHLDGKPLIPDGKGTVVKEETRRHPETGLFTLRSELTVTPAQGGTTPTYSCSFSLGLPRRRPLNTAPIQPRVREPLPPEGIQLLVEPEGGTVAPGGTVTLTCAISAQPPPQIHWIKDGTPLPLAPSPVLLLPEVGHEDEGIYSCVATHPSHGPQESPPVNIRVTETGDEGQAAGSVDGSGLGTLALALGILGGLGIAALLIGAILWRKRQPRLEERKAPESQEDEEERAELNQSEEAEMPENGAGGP

B1: Toll-like receptor 4 (receptor, UniProt Q9QX05 26-835)
chain: NPCIEVLPNITYQCMDQNLSKIPHDIPYSTKNLDLSFNPLKILRSYSFTNFSQLQWLDLSRCEIETIEDKAWHGLNQLSTLVLTGNPIKSFSPGSFSGLTNLENLVAVETKMTSLEGFHIGQLISLKKLNVAHNLIHSFKLPEYFSNLTNLEHVDLSYNYIQTISVKDLQFLRENPQVNLSLDLSLNPIDSIQAQAFQGIRLHELTLRSNFNSSNVLKMCLQNMTGLHVHRLILGEFKNERNLESFDRSVMEGLCNVSIDEFRLTYINHFSDDIYNLNCLANISAMSFTGVHIKHIADVPRHFKWQSLSIIRCHLKPFPKLSLPFLKSWTLTTNREDISFGQLALPSLRYLDLSRNAMSFRGCCSYSDFGTNNLKYLDLSFNGVILMSANFMGLEELEYLDFQHSTLKKVTEFSVFLSLEKLLYLDISYTNTKIDFDGIFLGLISLNTLKMAGNSFKDNTLSNVFTNTTNLTFLDLSKCQLEQISRGVFDTLYRLQLLNMSHNNLLFLDPSHYKQLYSLRTLDCSFNRIETSKGILQHFPKSLAVFNLTNNSVACICEYQNFLQWVKDQKMFLVNVEQMKCASPIDMKASLVLDFTNSTCYIYKTIISVSVVSVLVVATVAFLIYHFYFHLILIAGCKKYSRGESIYDAFVIYSSQNEDWVRNELVKNLEEGVPRFQLCLHYRDFIPGVAIAANIIQEGFHKSRKVIVVVSRHFIQSRWCIFEYEIAQTWQFLSSRSGIIFIVLEKVEKSLLRQQVELYRLLSRNTYLEWEDNALGRHIFWRRLKKALLDGKALNPDETSEEEQEATTLT

Target: Recombinant human HMGB1 B box (residues 90–175) (human) (UniProt P09429)
Assay: pull-down; His-tagged B box (100 μg) on a Ni-beads column, reacted with or without celastrol (equimolar or five-fold) for 1 h; 500 μg lysate of primary neurons added, 2 h at 4 °C; eluted; Western blot with antibodies against TLR4 and RAGE; only the target purified

| Molecule | binding |
| --- | --- |
| Receptor for advanced glycation endproducts (from UniProt Q63495 23-402) | binds |
| B1 | binds |
